Our source for the EC50 values is patent publication US20230157998A1, “Methods of Inhibiting SARS-CoV-2 Replication and Treating Corona Virus Disease 2019” (Pfizer Inc., priority 2020, published 2023).

The experiment relates to SARS-CoV-2. In words: Antiviral activity in HeLa-ACE2 cells (viral protein detection). In kind it is cell-based. As to conditions: Severe acute respiratory syndrome coronavirus 2, compound alone.

SMILES strings stand for the structures.

Compound `CCC(CC)COC(=O)[C@H](C)N[P@](=O)(OC[C@H]1O[C@@](C#N)(c2ccc3c(N)ncnn23)[C@H](O)[C@@H]1O)Oc1ccccc1` [remdesivir, reference compound] yielded an EC50 of 73.9 nM.
